Some results were stated once for a whole list of compounds, not compound by compound.
Legend:
K-RasG12V = K-RasG12V (Homo sapiens, UniProt P01116+P62937, G12V); test: Disruption of BRAF RBD interaction with K-Ras (TR-FRET / MOA assay), K-RasG12V; format: biochemical; settings: TR-FRET with cyclophilin A and GST-BRAF RBD, read-out: IC50 with respect to K-RasG12V (disruption of BRAF RBD interaction)
Capan-1 (K-Ras G12V) = test: CellTiter-Glo cell viability assay, Capan-1; format: cell-based, human; settings: 5-day treatment, Capan-1 versus A375

By UniProt entry, the sequences of proteins in these tests, tags left out. Where a name states a change or a piece, a line headed by the entry shows the natural chain unless it says otherwise. Residues count along the entry.
UniProt P01116, 1-188 isoform P01116-2 G12V: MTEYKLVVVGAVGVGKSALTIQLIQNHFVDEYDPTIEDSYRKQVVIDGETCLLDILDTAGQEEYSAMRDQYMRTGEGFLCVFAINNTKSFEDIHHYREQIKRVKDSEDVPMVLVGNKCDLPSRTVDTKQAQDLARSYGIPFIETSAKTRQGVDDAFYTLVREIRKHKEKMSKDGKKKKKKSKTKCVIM
UniProt P62937, whole entry: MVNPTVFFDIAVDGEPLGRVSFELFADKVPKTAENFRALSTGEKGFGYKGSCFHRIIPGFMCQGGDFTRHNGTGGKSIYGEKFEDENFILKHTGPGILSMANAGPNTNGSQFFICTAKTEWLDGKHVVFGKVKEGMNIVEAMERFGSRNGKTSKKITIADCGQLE

Row | IC50 (K-RasG12V) | SMILES | decrease in cell viability with respect to KRAS G12V (Capan-1) versus wild-type KRAS (A375) (Capan-1 (K-Ras G12V))
1 | < 1 µM | CCO[C@H]1C2=NC=C(O2)c2ccc3c(c2)c(c(-c2cc(N4CCN(C5CC5)CC4)cnc2[C@H](C)OC)n3CCOC2CCOCC2)CC(C)(C)COC(=O)[C@@H]2CCCN(N2)C(=O)[C@H]1NC(=O)[C@@H]1[C@@H](C)[C@H]1c1ccncn1 (racemic) [Example A572] | greater decrease in cell viability
2 | < 1 µM | CCO[C@@H]1c2nc(cs2)-c2ccc3c(c2)c(c(-c2cc(N4CCN(C5CC5)CC4)cnc2[C@H](C)OC)n3CCO[C@H]2CCOC(C)(C)C2)CC(C)(C)COC(=O)[C@@H]2CCCN(N2)C(=O)[C@H]1NC(=O)[C@@H]1[C@@H](C)[C@H]1c1ccccn1 (racemic) [Example A574] | greater decrease in cell viability
3 | < 1 µM | CCO[C@@H]1c2nc(cs2)-c2ccc3c(c2)c(c(-c2cc(N4CCN(C)CC4)cnc2[C@H](C)OC)n3CCOC(C)C)CC(C)(C)COC(=O)[C@@H]2CCCN(N2)C(=O)[C@H]1NC(=O)C12CC(C1)C(CC)O2 (mixture of isomers) [Example A576] | greater decrease in cell viability
4 | < 1 µM | CO[C@@H](C)c1ncc(N2CCN(C3CC3)CC2)cc1-c1c2c3cc(ccc3n1CCOC1CCOCC1)-c1csc(n1)[C@@H](OCC(F)F)[C@H](NC(=O)N1C[C@@H]3COCC[C@@H]31)C(=O)N1N[C@H](C(=O)OCC(C)(C)C2)C2CC1C2 (racemic) [Example A577] | greater decrease in cell viability
5 | < 1 µM | CO[C@@H](C)c1ncccc1-c1c2c3cc(ccc3n1CCOC1CCS(=O)(=O)CC1)-c1csc(n1)[C@@H](N1CCCC1)[C@H](NC(=O)[C@@H]1[C@@H](C)[C@H]1c1ccncn1)C(=O)N1CCC[C@H](N1)C(=O)OCC(C)(C)C2 (racemic) [Example A580] | greater decrease in cell viability
6 | < 1 µM | CCO[C@@H]1c2nc(cs2)-c2ccc3c(c2)c(c(-c2cc(N4CCN(C5CC5)CC4)cnc2[C@H](C)OC)n3CCO[C@H]2CCOC(C)(C)C2)CC(C)(C)COC(=O)[C@@H]2CCCN(N2)C(=O)[C@H]1NC(=O)[C@@H]1[C@@H](C)[C@H]1c1ccncn1 (racemic) [Example A581] | greater decrease in cell viability
7 | < 1 µM | CO[C@@H](C)c1ncc(N2CCN(C3CC3)CC2)cc1-c1c2c3cc(ccc3n1CCO[C@@H]1CCOC(C)(C)C1)-c1csc(n1)[C@@H](N1CCOCC1)[C@H](NC(=O)C1[C@@H](C)[C@H]1c1ccncn1)C(=O)N1CCC[C@H](N1)C(=O)OCC(C)(C)C2 (mixture of isomers) [Example A582] | greater decrease in cell viability
8 | < 1 µM | CO[C@@H](C)c1ncc(N2CCN(C3CC3)CC2)cc1-c1c2c3cc(ccc3n1CCOC1CCOCC1)-c1csc(n1)[C@@H](N1CCCC1)[C@H](NC(=O)N1C[C@@H]3COCC[C@@H]31)C(=O)N1CCC[C@H](N1)C(=O)OCC(C)(C)C2 (racemic) [Example A583] | greater decrease in cell viability
9 | < 1 µM | CCO[C@@H]1c2nc(cs2)-c2ccc3c(c2)c(c(-c2cc(N4CCN(C5CC5)CC4)cnc2[C@H](C)OC)n3CCO[C@@H]2CCOC(C)(C)C2)CC(C)(C)COC(=O)[C@@H]2CCCN(N2)C(=O)[C@H]1NC(=O)[C@@H]1[C@@H](C)[C@H]1c1ccccn1 (racemic) [Example A584] | greater decrease in cell viability

Further lines, the compound ahead of its results:

Row | SMILES | IC50 (K-RasG12V) | decrease in cell viability with respect to KRAS G12V (Capan-1) versus wild-type KRAS (A375) (Capan-1 (K-Ras G12V))
10 | CO[C@@H](C)c1ncc(N2CCN(C3CC3)CC2)cc1-c1c2c3cc(ccc3n1CCOC1CCOCC1)-c1csc(n1)[C@@H](N1CCCC1)[C@H](NC(=O)C13CC(C1)[C@H](C)O3)C(=O)N1N[C@H](C(=O)OCC(C)(C)C2)C2CC1C2 (racemic) [Example A550] | < 1 µM | greater decrease in cell viability
11 | CO[C@@H](C)c1ncc(N2CCN(C3CC3)CC2)cc1-c1c2c3cc(ccc3n1CCOC1CCOCC1)-c1csc(n1)[C@@H](N1CCCC1)[C@H](NC(=O)[C@@H]1CCO1)C(=O)N1N[C@H](C(=O)OCC(C)(C)C2)C2CC1C2 (racemic) [Example A551] | < 1 µM | greater decrease in cell viability
12 | CO[C@@H](C)c1ncccc1-c1c2c3cc(ccc3n1CCOC1CCOCC1)-c1csc(n1)[C@@H](N1CCCC1)[C@H](NC(=O)[C@H]1[C@H](C)[C@@H]1C)C(=O)N1N[C@H](C(=O)OCC(C)(C)C2)C2CC1C2 (racemic) [Example A553] | < 1 µM | greater decrease in cell viability
13 | CO[C@@H](C)c1ncc(N2CCN(C3CC3)CC2)cc1-c1c2c3cc(ccc3n1CCOC1CCOCC1)-c1nc(co1)[C@@H](N1CCOCC1)[C@H](NC(=O)[C@@H]1[C@@H](C)[C@H]1[C@H]1CCCO1)C(=O)N1CCC[C@H](N1)C(=O)OCC(C)(C)C2 (racemic) [Example A554] | < 1 µM | greater decrease in cell viability
14 | CO[C@@H](C)c1ncc(N2CCN(C3CC3)CC2)cc1-c1c2c3cc(ccc3n1CCOC1CCOCC1)-c1csc(n1)[C@@H](N1CC[C@H](F)C1)[C@H](NC(=O)N1C[C@@H]3COCC[C@@H]31)C(=O)N1N[C@H](C(=O)OCC(C)(C)C2)C2CC1C2 (racemic) [Example A555] | < 1 µM | greater decrease in cell viability
15 | CO[C@@H](C)c1ncc(N2CCN(C3CC3)CC2)cc1-c1c2c3cc(ccc3n1CCOC1CCOCC1)-c1csc(n1)[C@@H](N1CC3CC1C3)[C@H](NC(=O)[C@@H]1CCO1)C(=O)N1CCC[C@H](N1)C(=O)OCC(C)(C)C2 (racemic) [Example A556] | < 1 µM | greater decrease in cell viability
16 | CO[C@@H](C)c1ncc(N2CCN(C3CC3)CC2)cc1-c1c2c3cc(ccc3n1CCOC1CCOCC1)-c1csc(n1)[C@@H](N1CC3CC1C3)[C@H](NC(=O)[C@@H]1[C@@H](C)[C@H]1c1ccncn1)C(=O)N1CCC[C@H](N1)C(=O)OCC(C)(C)C2 (racemic) [Example A557] | < 1 µM | greater decrease in cell viability
17 | CCO[C@@H]1c2coc(n2)-c2ccc3c(c2)c(c(-c2cc(N4CCN(C5CC5)CC4)cnc2[C@H](C)OC)n3CCOC2CCOCC2)CC(C)(C)COC(=O)[C@H]2NN(C(=O)[C@H]1NC(=O)[C@@H]1[C@@H](C)[C@H]1[C@H]1CCCO1)C1CC2C1 (racemic) [Example A558] | < 1 µM | greater decrease in cell viability
18 | CO[C@@H](C)c1ncc(N2CCN(C3CC3)CC2)cc1-c1c2c3cc(ccc3n1CCOC1CCOCC1)-c1csc(n1)[C@@H](OC[C@@H](C)F)[C@H](NC(=O)C13CC(C1)C(C)O3)C(=O)N1CCC[C@H](N1)C(=O)OCC(C)(C)C2 (mixture of isomers) [Example A559] | < 1 µM | greater decrease in cell viability
19 | CO[C@@H](C)c1ncc(N2CCN(C3CC3)CC2)cc1-c1c2c3cc(ccc3n1CCOC1CCOCC1)-c1csc(n1)[C@@H](OC[C@H](C)F)[C@H](NC(=O)C13CC(C1)C(C)O3)C(=O)N1CCC[C@H](N1)C(=O)OCC(C)(C)C2 (mixture of isomers) [Example A560] | < 1 µM | greater decrease in cell viability
20 | CO[C@@H](C)c1ncc(N2CCN(C3CC3)CC2)cc1-c1c2c3cc(ccc3n1CCO[C@H]1CCOC(C)(C)C1)-c1csc(n1)[C@@H](N1CCOCC1)[C@H](NC(=O)C1[C@@H](C)[C@H]1c1ccncn1)C(=O)N1CCC[C@H](N1)C(=O)OCC(C)(C)C2 (mixture of isomers) [Example A561] | < 1 µM | greater decrease in cell viability
21 | CO[C@@H](C)c1ncc(N2CCN(C3CC3)CC2)cc1-c1c2c3cc(ccc3n1CCOC1CCOCC1)-c1csc(n1)[C@@H](N1CCOCC1)[C@H](NC(=O)N1OC(F)(F)[C@H]1C)C(=O)N1CCC[C@H](N1)C(=O)OCC(C)(C)C2 (racemic) [Example A563] | < 1 µM | greater decrease in cell viability
22 | CO[C@@H](C)c1ncccc1-c1c2c3cc(ccc3n1CCOC1CCOCC1)-c1csc(n1)[C@@H](OC[C@@H](C)F)[C@H](NC(=O)[C@@H]1[C@@H](C)[C@H]1c1ccncn1)C(=O)N1CCC[C@H](N1)C(=O)OCC(C)(C)C2 (racemic) [Example A564] | < 1 µM | greater decrease in cell viability
23 | CO[C@@H](C)c1ncccc1-c1c2c3cc(ccc3n1CCOC1CCOCC1)-c1csc(n1)[C@@H](OC[C@H](C)F)[C@H](NC(=O)[C@@H]1[C@@H](C)[C@H]1c1ccncn1)C(=O)N1CCC[C@H](N1)C(=O)OCC(C)(C)C2 (racemic) [Example A565] | < 1 µM | greater decrease in cell viability
24 | CO[C@@H](C)c1ncccc1-c1c2c3cc(ccc3n1CCOC1CCOCC1)-c1csc(n1)[C@@H](OC[C@H](C)N1CCN(C)CC1)[C@H](NC(=O)[C@@H]1[C@@H](C)[C@H]1c1ccncn1)C(=O)N1CCC[C@H](N1)C(=O)OCC(C)(C)C2 (racemic) [Example A566] | < 1 µM | greater decrease in cell viability
25 | CCO[C@@H]1c2nc(cs2)-c2ccc3c(c2)c(c(-c2cc(N4CCN(C5CC5)CC4)cnc2[C@H](C)OC)n3CCOC2CCOCC2)CC(C)(C)COC(=O)[C@@H]2CCCN(N2)C(=O)[C@H]1NC(=O)[C@H]1[C@H](C)[C@@H]1c1ncn(C)n1 (racemic) [Example A570] | < 1 µM | greater decrease in cell viability

Reference: patent US20250154171A1, “RAS INHIBITORS” (Revolution Medicines, Inc., priority 2023, published 2025)
